Laboratory results: the supplement of paper PMC6078165
Values are relative to the signal before dosing, not to a vehicle control; the signal also falls without drug.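 Labels refer to human fibroblasts, largely primary: uterine (C12385, HUF), lung (H6013), bone (Hs27A), adrenal (HADF), skin (WS1), plus mammary HMF and breast cancer-associated Hs343T. Cancer lines are basal-like or mesenchymal-like triple-negative breast cancer. The paper counts as hits responses shifting over 3x the replicate standard deviation. The tissue of the other fibroblasts is not given here.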

Tested on: Hs578T
Assay: relative JC-1 red fluorescence (viability) vs pre-drug, coculture with fibroblast (fraction); higher = more viable cancer cells
Procedure: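 JC-1 labelled TNBC cells cocultured 1:1 (1,500 cells each) with CellTrace Violet stained primary or stromal fibroblasts in 384-well plates in FluoroBrite medium, treated with one of 42 anticancer drugs at 0.1, 1, 10 or 100 uM. JC-1 red fluorescence (mitochondrial integrity in cancer cells only) was read by plate reader every 8 h for 72 h. Values are normalised to each well's pre-drug value. The stock of one drug was tenfold lower, so its dose labels may be too high.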

C#Cc1cccc(Nc2ncnc3cc(OCCOC)c(OCCOC)cc23)c1 [Erlotinib]
relative JC-1 red fluorescence
Settings	8 h	16 h	24 h	32 h	40 h	48 h	56 h	64 h	72 h
0.1 µM	0.956	0.842	0.7679	0.718	0.648	0.606	0.569	0.528	0.508
1 µM	0.867	0.799	0.781	0.7609	0.71	0.681	0.675	0.634	0.621
10 µM	0.959	0.897	0.866	0.836	0.787	0.755	0.734	0.691	0.685
100 µM	0.909	0.854	0.8406	0.816	0.773	0.75	0.75496	0.7218	0.718

relative JC-1 red fluorescence
Settings	8 h	16 h	24 h	32 h	40 h	48 h	56 h	64 h	72 h
0.1 µM, coculture fibroblast: C12385	0.859	0.738	0.706	0.645	0.593	0.57	0.554	0.55	0.554
0.1 µM, coculture fibroblast: H6013	0.895	0.866	0.8488	0.848	0.83	0.818	0.802	0.81	0.781
0.1 µM, coculture fibroblast: H6019	0.793	0.7078	0.69	0.609	0.575	0.55	0.52	0.495	0.467
0.1 µM, coculture fibroblast: H6076	0.888	0.812	0.812	0.831	0.815	0.842	0.838	0.857	0.866
0.1 µM, coculture fibroblast: H6231	0.893	0.829	0.7519	0.727	0.673	0.655	0.611	0.593	0.57
0.1 µM, coculture fibroblast: HADF	0.908	0.827	0.765	0.723	0.686	0.66	0.624	0.608	0.585
0.1 µM, coculture fibroblast: HCFa	0.878	0.813	0.774	0.745	0.694	0.675	0.643	0.634	0.592
0.1 µM, coculture fibroblast: HCPF	0.958	0.859	0.799	0.765	0.708	0.681	0.658	0.621	0.609
0.1 µM, coculture fibroblast: HHSteC	0.904	0.816	0.7763	0.7395	0.683	0.646	0.612	0.5899	0.5521
0.1 µM, coculture fibroblast: HMF	0.906	0.802	0.755	0.736	0.688	0.659	0.625	0.605	0.598
0.1 µM, coculture fibroblast: HPFa	0.924	0.8187	0.776	0.735	0.701	0.677	0.636	0.617	0.572
0.1 µM, coculture fibroblast: HUF	0.858	0.7201	0.7	0.604	0.545	0.518	0.489	0.481	0.475
0.1 µM, coculture fibroblast: Hs27A	0.897	0.858	0.827	0.783	0.735	0.715	0.678	0.663	0.6127
0.1 µM, coculture fibroblast: Hs343T	0.963	0.828	0.771	0.743	0.671	0.64	0.6	0.583	0.581
0.1 µM, coculture fibroblast: WS1	0.864	0.738	0.715	0.6345	0.59	0.581	0.572	0.584	0.589
1 µM, coculture fibroblast: C12385	0.825	0.777	0.722	0.668	0.616	0.593	0.578	0.56	0.5582
1 µM, coculture fibroblast: H6013	0.8663	0.853	0.83831	0.839	0.829	0.826	0.817	0.817	0.791
1 µM, coculture fibroblast: H6019	0.794	0.739	0.734	0.676	0.6524	0.628	0.6049	0.581	0.55
1 µM, coculture fibroblast: H6076	0.901	0.869	0.828	0.815	0.78	0.7728	0.759	0.739	0.74
1 µM, coculture fibroblast: H6231	0.891	0.828	0.8282	0.797	0.742	0.732	0.705	0.689	0.679
1 µM, coculture fibroblast: HADF	0.884	0.861	0.835	0.814	0.801	0.796	0.7729	0.7776	0.768
1 µM, coculture fibroblast: HCFa	0.87	0.855	0.823	0.799	0.759	0.743	0.714	0.695	0.662
1 µM, coculture fibroblast: HCPF	0.88	0.831	0.819	0.7827	0.72869	0.699	0.6918	0.6567	0.6421
1 µM, coculture fibroblast: HHSteC	0.8825	0.8463	0.822	0.798	0.768	0.751	0.725	0.705	0.669
1 µM, coculture fibroblast: HMF	0.896	0.85	0.821	0.796	0.744	0.724	0.703	0.67	0.662
1 µM, coculture fibroblast: HPFa	0.933	0.89	0.865	0.85	0.832	0.817	0.797	0.785	0.756
1 µM, coculture fibroblast: HUF	0.863	0.782	0.765	0.697	0.638	0.609	0.576	0.562	0.551
1 µM, coculture fibroblast: Hs27A	0.898	0.876	0.88	0.874	0.846	0.84	0.8	0.808	0.755
1 µM, coculture fibroblast: Hs343T	0.908	0.8272	0.812	0.796	0.738	0.728	0.71	0.691	0.696
1 µM, coculture fibroblast: WS1	0.8088	0.7591	0.7491	0.696	0.663	0.665	0.648	0.64	0.644
10 µM, coculture fibroblast: C12385	0.845	0.7844	0.785	0.74804	0.72	0.704	0.688	0.68	0.675
10 µM, coculture fibroblast: H6013	0.907	0.889	0.872	0.881	0.856	0.85	0.835	0.831	0.809
10 µM, coculture fibroblast: H6019	0.828	0.787	0.775	0.721	0.706	0.692	0.6756	0.652	0.642
10 µM, coculture fibroblast: H6076	0.953	0.918	0.896	0.875	0.857	0.856	0.835	0.826	0.812
10 µM, coculture fibroblast: H6231	0.907	0.86	0.823	0.7833	0.7496	0.733	0.69	0.669	0.648
10 µM, coculture fibroblast: HADF	0.932	0.94	0.929	0.934	0.921	0.907	0.896	0.896	0.858
10 µM, coculture fibroblast: HCFa	0.885	0.882	0.848	0.844	0.793	0.781	0.762	0.753	0.726
10 µM, coculture fibroblast: HCPF	0.9237	0.8853	0.8591	0.8438	0.804	0.796	0.78	0.743	0.723
10 µM, coculture fibroblast: HHSteC	0.906	0.8607	0.8316	0.835	0.801	0.791	0.781	0.773	0.745
10 µM, coculture fibroblast: HMF	0.917	0.882	0.855	0.8363	0.8034	0.80013	0.7811	0.75967	0.7511
10 µM, coculture fibroblast: HPFa	0.9857	0.97	0.965	0.95	0.943	0.939	0.911	0.903	0.873
10 µM, coculture fibroblast: HUF	0.8898	0.828	0.8446	0.773	0.7419	0.7204	0.7037	0.701	0.691
10 µM, coculture fibroblast: Hs27A	0.95	0.891	0.855	0.932	0.957	0.949	0.94	0.939	0.889
10 µM, coculture fibroblast: Hs343T	0.9515	0.904	0.894	0.891	0.845	0.834	0.814	0.784	0.772
10 µM, coculture fibroblast: WS1	0.8343	0.806	0.765	0.719	0.706	0.729	0.736	0.743	0.737
100 µM, coculture fibroblast: C12385	0.8624	0.8358	0.796	0.756	0.718	0.702	0.696	0.687	0.676
100 µM, coculture fibroblast: H6013	0.91	0.939	0.885	0.86	0.769	0.8238	0.86	0.869	0.834
100 µM, coculture fibroblast: H6019	0.79909	0.7621	0.775	0.721	0.715	0.719	0.721	0.72	0.709
100 µM, coculture fibroblast: H6076	0.9391	0.926	0.924	0.918	0.887	0.8896	0.886	0.892	0.898
100 µM, coculture fibroblast: H6231	0.93	0.902	0.889	0.8599	0.8183	0.809	0.782	0.761	0.751
100 µM, coculture fibroblast: HADF	0.729	0.811	0.8257	0.823	0.82	0.828	0.777	0.859	0.91
100 µM, coculture fibroblast: HCFa	0.945	0.964	0.9407	0.9164	0.8687	0.87	0.838	0.834	0.803
100 µM, coculture fibroblast: HCPF	0.979	0.942	0.932	0.922	0.895	0.889	0.89	0.847	0.843
100 µM, coculture fibroblast: HHSteC	0.828	0.875	0.959	0.956	0.929	0.917	0.898	0.879	0.853
100 µM, coculture fibroblast: HMF	0.865	0.858	0.946	0.924	0.883	0.871	0.862	0.84498	0.825
100 µM, coculture fibroblast: HPFa	0.969	0.939	0.84	0.852	0.966	0.941	0.902	0.887	0.853
100 µM, coculture fibroblast: HUF	0.8941	0.839	0.839	0.761	0.723	0.696	0.673	0.669	0.666
100 µM, coculture fibroblast: Hs27A	0.88	0.8341	0.772	0.867	0.793	0.798	0.754	0.8923	0.853
100 µM, coculture fibroblast: Hs343T	0.9409	0.89452	0.899	0.888	0.837	0.826	0.812	0.791	0.778
100 µM, coculture fibroblast: WS1	0.813	0.784	0.78	0.736	0.69	0.683	0.67	0.674	0.673
